PubChem BioAssay AID743458 – Peter MacCallum Cancer Centre | 2014
In all, the deposit lists about 1,800 reagents; below is a part drawn at random. Over the whole deposit, 732 (41%) are marked active. 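Calls are per siRNA reagent; a gene was deemed confirmed only if most of its four siRNAs scored.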 Reagents against one gene are numbered here.

Screen: 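Retest earlier hits with independent siRNAs per gene for restoring vorinostat sensitivity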 (follow-up of hits)
System: human HCT116-VR colon cancer cells made resistant to vorinostat
Reagent: single siRNA or pool against human genes, 25 nM per single siRNA
Timing: about 72 h after transfection, including 24 h of drug
Conditions: vorinostat, 2.5 µM final, for 24 h
Detection: 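Cell viability by fluorescence and apoptosis by caspase 3/7 luminescence under vorinostat, background-corrected, averaged across two plate copies and given as fold change versus mock transfection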
Direction: viability relative to mock: higher = more living cells than mock; caspase activity relative to mock: higher = more apoptosis than mock
Rule for the call: 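Active means a reduced-viability or caspase-activation class, anything else inactive; classes could only be given to wells that looked healthy when left untreated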

no.	gene symbol	reagent no.	viability relative to mock	caspase activity relative to mock	viability hit class	caspase hit class	call
1	MED20	1	0.79	1.6	no change	no change	inactive
2	MED20	2	0.55	4.64	reduced viability	caspase activation	active
3	MED20	3	0.62	0.72	no change	no change	inactive
4	MED20	4	0.95	1.83	no change	no change	inactive
5	SYT8	1	0.77	3.7	no change	caspase activation	active
6	SYT8	2	0.79	1.65	no change	no change	inactive
7	SYT8	3	0.79	2.42	no change	no change	inactive
8	SYT8	4	0.88	1.03	no change	no change	inactive
9	SALL3	1	0.44	2.99	reduced viability	caspase activation	active
10	SALL3	2	0.55	4.59	reduced viability	caspase activation	active
11	SALL3	3	0.82	1.5	no change	no change	inactive
12	SALL3	4	0.98	1.69	no change	no change	inactive
13	ANO9	1	0.72	1.43	no change	no change	inactive
14	ANO9	2	0.58	3.65	no change	caspase activation	active
15	ANO9	3	0.92	4.16	no change	caspase activation	active
16	ANO9	4	0.76	2.68	no change	caspase activation	active
17	CDK14	1	0.84	1.17	no change	no change	inactive
18	CDK14	2	0.9	1.64	no change	no change	inactive
19	CDK14	3	0.78	1.99	no change	no change	inactive
20	CDK14	4	0.52	3.21	reduced viability	caspase activation	active
21	TTC22	1	0.33	1.68	no change	no change	inactive
22	TTC22	2	1.03	3.49	no change	caspase activation	active
23	TTC22	3	0.86	1.73	no change	no change	inactive
24	TTC22	4	0.92	1.77	no change	no change	inactive
25	KRTAP13-2	1	0.84	4.39	no change	caspase activation	active
26	KRTAP13-2	2	0.44	3.76	reduced viability	caspase activation	active
27	KRTAP13-2	3	0.82	1.18	no change	no change	inactive
28	KRTAP13-2	4	0.86	1.03	no change	no change	inactive
29	SPMAP2	1	0.86	3.09	no change	caspase activation	active
30	SPMAP2	2	0.84	1.25	no change	no change	inactive
31	SPMAP2	3	0.79	1.67	no change	no change	inactive
32	SPMAP2	4	0.93	1.97	no change	no change	inactive
33	PDE6G	1	1.04	1.77	no change	no change	inactive
34	PDE6G	2	0.91	2.07	no change	no change	inactive
35	PDE6G	3	0.46	1.04	reduced viability	no change	active
36	PDE6G	4	0.73	3.86	no change	caspase activation	active
37	PUF60	1	0.6	5.48	no change	caspase activation	active
38	PUF60	2	0.52	4.8	reduced viability	caspase activation	active
39	PUF60	3	0.7	5.32	no change	caspase activation	active
40	PUF60	4	1	2.04	no change	no change	inactive
41	PUF60	5	0.7	6.27	no change	caspase activation	active
42	TDP2	1	0.52	4.45	reduced viability	caspase activation	active
43	TDP2	2	0.58	2.85	no change	caspase activation	active
44	TDP2	3	0.75	3.59	no change	caspase activation	active
45	TDP2	4	0.31	3.81	reduced viability	caspase activation	active
46	USP11	1	0.68	2.55	no change	no change	inactive
47	USP11	2	0.98	1.89	no change	no change	inactive
48	USP11	3	0.92	0.85	no change	no change	inactive
49	USP11	4	0.83	1.18	no change	no change	inactive
50	SIAH2	1	0.86	1.35	no change	no change	inactive
51	SIAH2	2	1.03	1.01	no change	no change	inactive
52	SIAH2	3	0.58	0.97	no change	no change	inactive
53	SIAH2	4	0.94	2.46	no change	no change	inactive
54	PSMD12	1	0.28	4.13	no change	no change	inactive
55	PSMD12	2	0.68	3.69	no change	caspase activation	active
56	PSMD12	3	0.91	1.5	no change	no change	inactive
57	PSMD12	4	0.48	3.84	reduced viability	caspase activation	active

Taken from above.
For “caspase activity relative to mock”, SALL3 #3 shows 1.5
For “caspase hit class”, CDK14 #3 has no change
Entry for CDK14 #4 in “caspase hit class”: caspase activation
Entry for PUF60 #5 under “caspase hit class”: caspase activation
Entry for TTC22 #1 under “viability relative to mock”: 0.33
For “caspase activity relative to mock”, SIAH2 #1 reads 1.35
